Experimental data published in PubChem BioAssay AID2685 (National Center for Advancing Translational Sciences (NCATS), 2010).
Screen size: about 320,000 compounds; about 2,100 (0.66%) were called active. Inconclusive results, whose numbers are uncertain, are shown with a selection of clear calls. Calls come from the whole dose curve; as a rule, active = well fitted inhibition curve with a large enough effect in the signal ratio, with a control signal flat (not every such curve was filed as active); inconclusive = small, poorly fitted or top-dose-only effect, or effect the other way, or a change in a side signal; inactive = flat fitted curve, though single readings scatter; the % refers to the signal ratio. Potencies beside an inconclusive call are fits to weak or partial responses and may not hold up.

Assay: qHTS Assay for Lipid Storage Modulators in Drosophila S3 Cells
Settings: BODIPY lipid droplet fluorescence, 18-24 h, cells fed with added oleic acid; lipid storage change, negative = inhibition: at 46.1 µM (top of the series) unless noted
How it was run: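 Laser-scanning cytometry quantifies lipid droplet accumulation (500–530 nm total intensity; droplet/cell object ratio) in oleic acid-fed (400 uM added) Drosophila S3 cells treated with a concentration series. 20 uM Triacsin C defined 100% inhibition.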
% is set by controls: 0 for no effect and ±100 for the full control effect; potency is the fitted concentration of half-maximal effect.

SMILES | lipid storage change, negative = inhibition | Potency
CCS(=O)(=O)C1=NN2C(=N)/C(=C\c3ccc(OS(=O)(=O)c4ccccc4)cc3)C(=O)N=C2S1 | inconclusive: 15.1% | 
Cn1c(=O)c2c(O)c(Cc3ccccc3)c(=O)[nH]c2n(C)c1=O | inactive: 29.3% | 
CC(=O)c1cccc(OCc2cc(C(=O)N(C)C(C)c3ccccn3)no2)c1 (stereo not given) |  | inconclusive: 0.259 µM [activator, full curve]
CCOC(=O)N1CCN(C(=O)c2ccc3c(c2)NC(=O)/C(=C/c2ccccc2)S3)CC1 |  | inconclusive: 18.4 µM [falling, partial curve]
Cc1ccc([C@@H]2CC=C(C(=O)O)[C@H](c3ccccc3)N2S(=O)(=O)c2ccc(C)cc2)cc1 |  | inconclusive: 6.51 µM [activator, partial curve, poor fit]
CNC(=O)COc1coc(CN2CCN(c3ccc(F)cc3)CC2)cc1=O |  | inconclusive: 29.1 µM [activator, single point]
COc1cc(NC(=O)CCCC(=O)OCC(F)(F)C(F)F)nc(OC)n1 | inconclusive: 21.4% [at 9.22 µM] | 
Cc1cc(C)c(S(=O)(=O)N2CCN(C(=O)N3CCCCC3)CC2)c(C)c1 | inconclusive: -24.1% | 
COCCCNC(=S)Nc1ccc(C)cc1 | inconclusive: -0.492% | 
CC(O)(CS(=O)(=O)Cc1ccccc1Cl)C(=O)Nc1cccc(C(F)(F)F)c1 (stereo not given) | inconclusive: 0.376% | 
CC(C)(C)Nc1cccccc1=O |  | inconclusive: 0.206 µM [falling, full curve]
Cc1cccc(CN2CCNC2=O)c1 | inconclusive: 79.7% | 
COc1cc(/C=N/NC(=O)C(N)=O)ccc1OC(=O)c1cccs1 | inconclusive: 38.5% | 
O=C(NCc1cn2ccccc2n1)c1ccccc1 | inconclusive: 19% | 
Oc1ccccc1N1CCN(c2nc(-c3cccs3)nc3ccccc23)CC1 | inconclusive: 11.2% | 
COc1cccc(C(=O)Nc2ccc(NC(=O)C3CC3)nc2)c1 |  | inconclusive: 0.651 µM [falling, single point]
CCn1cc(C(=O)N2CCN(c3ccccc3)CC2)c(=O)c2cc(S(=O)(=O)N3CCOCC3)ccc21 |  | inconclusive: 29.1 µM [activator, partial curve]
Cc1nn(C(C)(C)C)c(C)c1/C=N/OC(=O)Nc1ccc(Cl)cc1 | inconclusive: -25.6% | 
O=C(Nc1cccc(-c2nc3ccccc3[nH]2)c1)c1ccco1 |  | inconclusive: 3.26 µM [activator, partial curve]
Cc1ccc(S(=O)(=O)NCC(=O)OCC(=O)Nc2cccc(S(=O)(=O)NC3=NCCCCC3)c2)cc1C | inconclusive: 5.24% | 
O=C(NCc1cccnc1)c1ccccc1-c1ccccc1 | inconclusive: 25.5% [at 9.22 µM] | 
Cc1ccc(C(=O)NCCn2cc(SCC(=O)Nc3nnc(C)s3)c3ccccc32)cc1 | inconclusive: -26.9% | 
CCOC(=O)/C(C#N)=C/c1ccc(OCC(=O)Nc2ccc(C)c(C)c2)c(OC)c1 | inconclusive: 24.1% | 
C=CCn1c(C)nnc1SCC(=O)Nc1nc(C)c(C(=O)N(C)C)s1 | inconclusive: 4.2% | 
CCCCOc1ccc(-c2csc(N)n2)cc1[N+](=O)[O-] |  | inconclusive: 1.64 µM [activator, partial curve]

SMILES | lipid storage change, negative = inhibition | Potency
COc1ccc(OC)c(C(=O)N2CCC(CCC(=O)NC3CC3)CC2)c1 |  | inconclusive: 6.51 µM [activator, single point]
CC(C)(C)c1csc(Sc2ncccc2[N+](=O)[O-])n1 | inactive: -5.1% | 
CCOc1ccc(CN2CCN(CCCn3cccn3)CC2CCO)cc1 (stereo not given) | inconclusive: 5.7% | 
Cc1ccccc1N1CCN(C(=O)c2ccc(Oc3ccc(C(F)(F)F)cn3)cc2)CC1 | inconclusive: 65.9% | 
CC(=O)c1cccc(N(CC(=O)NCCc2ccccc2)C(=O)c2csnn2)c1 | inconclusive: 93.2% | 
CCOc1ccccc1NC(=O)c1ccc(S(=O)(=O)N2CCCCC2)cc1 | inconclusive: 48.8% | 
COc1cc2c(cc1OC)C(C(=O)Nc1ccccn1)C(c1cccnc1)N(C)C2=O (stereo not given) | inconclusive: -1.8% | 
CCOc1cc(C)c(C(C)C)cc1S(=O)(=O)N1CC(C)OC(C)C1 (stereo not given) | inconclusive: 93.5% | 
O=C(NCCc1ccc(F)cc1)Nc1ccc([N+](=O)[O-])cc1 |  | active: 13 µM
Cc1oc(-c2ccc(Cl)cc2)nc1CS(=O)CC(=O)NCc1ccccn1 (stereo not given) |  | inconclusive: 18.4 µM [activator, partial curve]
CC(C)C[C@@]12C(=O)N(c3cccc(F)c3)C(=O)N1[C@H](c1ccc(F)cc1)[C@@H]1C(=O)N(C3CCCCC3)C(=O)[C@@H]12 | inconclusive: -70.6% | 
CC(=O)N1c2ccc(S(=O)(=O)NCC3CCC(C(=O)NC4CCCCC4C)CC3)cc2CC1C (stereo not given) |  | inconclusive: 0.92 µM [falling, full curve]
COc1ccc(Cl)cc1-c1n[nH]c(=S)n1C1CCCCC1 |  | inconclusive: 2.31 µM [activator, partial curve]
CCOC(=O)Cc1csc(NC(=O)CCc2ccc(S(=O)(=O)N3CCOCC3)cc2)n1 | inconclusive: 11.7% | 
COc1ccc2c(c1)sc(N)[n+]2Cc1cc(C)cc2cccnc12 | inconclusive: -27.4% | 
CCc1ccc(C(C)(O)C(CN2CCOCC2)c2ccccc2)cc1 (stereo not given) |  | inconclusive: 29.1 µM [activator, single point]
Cc1nc(-c2ccc(Cl)cc2)sc1C1(C)CC(c2ccccc2F)=NO1 (stereo not given) |  | inconclusive: 9.2 µM [activator, single point]
CCOC(=O)N1CCN(Cc2cn[nH]c2-c2cc3ccccc3o2)CC1 |  | inconclusive: 29.1 µM [activator, single point]
Oc1ccccc1CNCc1ccccc1 |  | inconclusive: 2.31 µM [activator, full curve]
COc1ccc(/C=N/NC(=O)CCC(=O)Nc2ccc(F)cc2)c(OC)c1 |  | inconclusive: 29.1 µM [activator, single point]
CCC(=O)Nc1nc2ccccc2n1Cc1ccc(Cl)cc1 | inconclusive: -10.6% | 
OCCNCCCCOc1ccccc1F |  | inconclusive: 0.231 µM [falling, full curve, poor fit]
Cn1cc(S(=O)(=O)Nc2cccc(F)c2)c(=O)n(C)c1=O | inconclusive: -0.92% | 
CCCn1c(N)c(CC)c(=O)[nH]c1=O | inconclusive: -13.3% | 
COc1cccc(OCc2nc3ccccc3c(=O)n2N)c1 |  | inconclusive: 2.31 µM [activator, partial curve]

SMILES | lipid storage change, negative = inhibition | Potency
Cc1ccccc1CN1C2=NCCN2c2ccccc21 |  | inconclusive: 0.13 µM [activator, full curve, poor fit]
CC(=O)NS(=O)(=O)c1ccc(N=c2ssc3c2-c2ccc(C)cc2NC3(C)C)cc1 | inconclusive: -24.2% | 
CC(C)(C)NC(=O)c1cccc(NC(=O)CSc2ccccc2)c1 | inconclusive: -7.83% | 
CCOc1ccc(N2CC(C(=O)Nc3ccc(S(=O)(=O)N4CCCCC4)cc3)CC2=O)cc1 (stereo not given) | inconclusive | 
CCCNC(=O)c1onc(CSc2ccncc2)c1C(=O)NCCC | inconclusive: 20.1% | 
Cc1ccc(S(=O)(=O)N2CCC(C(=O)N3CCc4ccccc43)CC2)cc1 |  | inconclusive: 20.6 µM [activator, single point]
COCCCn1nnnc1SCC(=O)Nc1nc(C)c(C)s1 | inconclusive: -0.195% | 
COc1ccc(Cl)cc1C(Nc1cccnc1)c1ccc2cccnc2c1O (stereo not given) |  | inconclusive: 20.6 µM [falling, single point]
CS(=O)(=O)Nc1cccc(C(=O)CC2(O)C(=O)Nc3ccc(Br)cc32)c1 (stereo not given) | inconclusive: 6.9% | 
CCc1cc2c(=O)c(-c3nc4ccccc4n3C)c(C)oc2cc1OC(C)=O |  | inconclusive: 13 µM [falling, partial curve, poor fit]
Nc1ccc(S(=O)(=O)C(F)(F)F)cc1N | inconclusive: -23.6% | 
C[C@@H](C(=O)Nc1ccc2ccccc2c1)[C@H]1C[C@]1(C)[C@H](NC(=O)c1cccnc1)c1ccccc1 |  | inconclusive: 1.84 µM [activator, full curve, poor fit]
CCC1CCCCN1c1nc2c(C=O)c(C)nn2c2ccccc12 (stereo not given) | inconclusive: -17.4% | 
O=C(NCc1ccc(Cl)cc1)C1CCCO1 (stereo not given) | inconclusive: -37.2% [at 9.22 µM] | 
Cc1nc(NC(=O)C2CC2)sc1C(=O)Nc1ccccc1 | inconclusive: 7.9% | 
COC1=CC(=O)CC(C)C12Oc1c(Cl)c(OC)cc(OC)c1C2=O (stereo not given) | inconclusive: -1.07% | 
O=C(Cc1ccc(S(=O)(=O)N2CCOCC2)s1)N(Cc1ccccc1)c1ccccc1 | inconclusive: 35.4% | 
CCOC(=O)c1nn(-c2ccc(C)cc2)c(=O)cc1OCC(=O)Nc1ccc(OC)cc1 | inconclusive | 
O=C(Cn1nc(-c2cccc([N+](=O)[O-])c2)c2ccccc2c1=O)Nc1cccnc1 |  | inconclusive: 2.06 µM [rising, partial curve]
Cn1nnnc1SCc1ccc(CSc2nnnn2C)cc1 | inconclusive: 12.9% | 
COC(=O)c1c(C)[nH]c(C(C)=O)c1C | inconclusive: 34.8% | 
Cc1cc(Cl)c(S(=O)(=O)N2CCN(c3ccccn3)CC2)cc1OCC(N)=O | inconclusive: 18.7% | 
O=Cc1cn(-c2ccccc2)nc1-c1ccccn1 | inconclusive: 0.615% | 
CN(CC(=O)Nc1ccncc1)S(=O)(=O)c1ccc(Br)cc1 | inconclusive: -1.6% | 
Cc1occc1C(=O)Nc1cnn(CCCC(=O)O)c1 | inconclusive: 22.2% | 

Grouped by structure, the compounds so far containing a tert-butyl group.
SMILES | lipid storage change, negative = inhibition | Potency
CC(C)(C)Nc1cccccc1=O |  | inconclusive: 0.206 µM [falling, full curve]
Cc1nn(C(C)(C)C)c(C)c1/C=N/OC(=O)Nc1ccc(Cl)cc1 | inconclusive: -25.6% | 
CC(C)(C)c1csc(Sc2ncccc2[N+](=O)[O-])n1 | inactive: -5.1% | 
CC(C)(C)NC(=O)c1cccc(NC(=O)CSc2ccccc2)c1 | inconclusive: -7.83% | 
